Source: PubChem BioAssay AID686943 (Drosophila RNAi Screening Center, 2013)
Aim: 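Search across the genome for regulators of signalling from receptor tyrosine kinase to ERK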 (primary screen). System: Drosophila S2R+ haemocyte-like cells expressing YFP-tagged ERK (Rolled). Reagents: long dsRNA against Drosophila genes. Challenge: insulin stimulation versus unstimulated cells; dose and duration not given. Detection: 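Per-plate z-scores of phospho-ERK immunostaining normalised to YFP-tagged ERK, measured with and without insulin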. Reading the numbers: replicate 1, z-score of dpERK with insulin and replicate 2, z-score of dpERK with insulin: higher = more active ERK per ERK-YFP after insulin; replicate 1, z-score of dpERK under basal conditions: higher = more basal active ERK per ERK-YFP; replicate 1, z-score of ERK-YFP with insulin: higher = more YFP-tagged ERK signal.
The deposit covers about 23,000 reagents; this is an unselected part of those that have a named target and a result. 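Extra replicates exist only for a retested subset of genes; insulin dose and duration not given; both raised and lowered dpERK matter.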 No sequences are given here. Not given: the amount of reagent, the time to read-out.

gene | DRSC id | replicate 1, z-score of dpERK with insulin | replicate 2, z-score of dpERK with insulin | replicate 1, z-score of dpERK under basal conditions | replicate 1, z-score of ERK-YFP with insulin
CG30371 (GeneID 35806) | DRSC06835 | -0.19 | -0.87 | 0.05 | -0.12
CG12617 (GeneID 50470) | DRSC02176 | 0.71 | 0.15 | -0.55 | -0.27
CCT5 (GeneID 36308) | DRSC07357 | 0.15 | 0.81 | 0.61 | 0.72
TTLL1B (GeneID 326203) | DRSC08594 | 0.31 | 0.67 | -0.06 | 0.54
Tsp42A (GeneID 35515) | DRSC04862 | 0.24 | 1 | 0.14 | -0.09
Dbp21E2 (GeneID 33254) | DRSC00616 | 0 | -0.54 | -0.32 | 0.51
CG31808 (GeneID 10178782) | DRSC22962 | -0.26 | -0.75 | -0.75 | -0.2
gskt (GeneID 318552) | DRSC14056 | 0.67 | 0.84 | 1.65 | 0.11
CG14107 (GeneID 39498) | DRSC10110 | 1.76 | 1.6 | -1.16 | -3.43
CG4960 (GeneID 43115) | DRSC15684 | -0.23 | -0.03 | -1.01 | -1.05
Septin2 (GeneID 42438) | DRSC16855 | -0.14 | -0.05 | -0.11 | 0.13
Obp57a (GeneID 246670) | DRSC22047 | 0.85 | -0.01 | -0.29 | -0.45
omd (GeneID 41674) | DRSC16507 | -1.93 | -1.7 | -0.62 | -0.12
CG15343 (GeneID 31765) | DRSC18028 | 0.34 | -0.56 | -0.15 | 0.29
ranshi (GeneID 41041) | DRSC16564 | 0.39 | 0.41 | 0.29 | 0.02
CG8401 (GeneID 36770) | DRSC07165 | -0.28 | -0.29 | -0.26 | 0.29
CG9132 (GeneID 2768881) | DRSC20159 | 0.02 | -1.61 | -1.17 | 0
vex (GeneID 32033) | DRSC19481 | 0 | 0.29 | 0.1 | 0
vex (GeneID 32033) | DRSC19651 | 0.32 | 0.49 | -1.61 | 0.3
vex (GeneID 32033) | DRSC21843 | 0.2 | 0.63 | -0.63 | -1.24
PXo (GeneID 38666) | DRSC09734 | 0.2 | -0.58 | -0.61 | -0.44
rho-7 (GeneID 36281) | DRSC07304 | -0.27 | 0.11 | 0.57 | -0.51
CG9451 (GeneID 40118) | DRSC11074 | -0.29 | 0 | 0.64 | -0.31
mRpL46 (GeneID 38230) | DRSC08391 | -0.84 | -1.8 | -1.33 | 1.1
CG14915 (GeneID 34536) | DRSC02399 | 0.22 | -0.19 | -0.11 | -0.55
Helz (GeneID 39613) | DRSC11072 | 0.06 | -0.12 | 0.14 | -0.44
CG8728 (GeneID 35748) | DRSC07251 | 0.17 | -0.36 | 0.62 | 0.63
CG16721 (GeneID 31520) | DRSC18113 | 0.14 | 0.41 | -0.05 | 0.09
Drak (GeneID 32097) | DRSC19778 | 0.15 | 1.15 | -0.2 | 0.33
CG31869 (GeneID 34490) | DRSC02582 | 0.5 | -0.39 | -0.66 | 0.66
CG31869 (GeneID 34490) | DRSC02674 | 0.25 | 0.17 | -0.59 | -0.59
CG14346 (GeneID 33325) | DRSC00376 | 0.57 | 0.07 | 0.65 | -0.35
Nepl14 (GeneID 42700) | DRSC15631 | -1.01 | 0.34 | 0.05 | 0.38
CG42337 (GeneID 40335) | DRSC11686 | -1.17 | 0.74 | 0.29 | 1.62
CG42337 (GeneID 40335) | DRSC11687 | -4.16 | -3.67 | -2.54 | -3.79
CG43190 (GeneID 12798407) | DRSC05316 | -0.14 | 0.15 | 1.29 | -0.2
CG7896 (GeneID 43552) | DRSC16335 | 0.4 | -0.24 | -0.66 | -0.51
kl-3 (retired record) (GeneID 5740653) | DRSC20730 | -0.23 | -0.78 | -0.44 | -1.05
kl-3 (retired record) (GeneID 5740653) | DRSC20891 | -0.06 | -0.31 | -1.59 | 0.4
kl-3 (retired record) (GeneID 5740653) | DRSC20934 | -0.11 | 1.09 | -0.09 | -0.06
Pss (GeneID 40281) | DRSC11757 | 0.9 | 0.23 | 0.22 | -0.22
CG31224 (GeneID 42237) | DRSC15272 | -1.31 | -1.28 | -2.03 | 0.4
CG31224 (GeneID 42237) | DRSC16290 | 0.11 | -0.38 | -1.66 | 2.76
CG8343 (GeneID 35544) | DRSC04905 | 0.13 | -0.23 | -0.17 | -0.29
CG34267 (GeneID 5740365) | DRSC07881 | 0.28 | 0.01 | -0.04 | -0.31
Rcd5 (GeneID 38478) | DRSC08180 | 0.42 | -0.41 | -0.56 | 1.8
Su(var)3-3 (GeneID 40217) | DRSC10250 | -0.21 | 0.15 | 0.35 | 0.82
CG9062 (GeneID 36199) | DRSC07327 | 0.08 | 0.45 | 0.01 | 0.51
tok (GeneID 42944) | DRSC17087 | -0.02 | 0.06 | -0.15 | -0.37
Snoo (GeneID 5740414) | DRSC01008 | 0.21 | -0.37 | 0.33 | -0.32
Snoo (GeneID 5740414) | DRSC03004 | -1.12 | -1.61 | -0.33 | -0.81
Snoo (GeneID 5740414) | DRSC03035 | -0.74 | 0.05 | 0.04 | -0.21
Tsp42Ec (GeneID 35612) | DRSC06192 | 0.53 | -0.11 | -1.6 | 0.02
CG14329 (GeneID 42116) | DRSC14808 | 2.13 | 1.49 | -0.34 | -0.91
prim (GeneID 36814) | DRSC06575 | -0.04 | -0.14 | 1.51 | 0.54
spict (GeneID 34681) | DRSC02157 | -0.09 | -0.95 | 0.64 | 0.49
Crys (GeneID 34604) | DRSC03294 | -0.15 | 0.55 | -0.4 | 0.05

Records listed so far whose gene name starts with R or r:
gene | DRSC id | replicate 1, z-score of dpERK with insulin | replicate 2, z-score of dpERK with insulin | replicate 1, z-score of dpERK under basal conditions | replicate 1, z-score of ERK-YFP with insulin
ranshi (GeneID 41041) | DRSC16564 | 0.39 | 0.41 | 0.29 | 0.02
rho-7 (GeneID 36281) | DRSC07304 | -0.27 | 0.11 | 0.57 | -0.51
Rcd5 (GeneID 38478) | DRSC08180 | 0.42 | -0.41 | -0.56 | 1.8
